The record followed here is PMC11722552.

Sequences of proteins named here, by UniProt entry; tags and fusion partners are left off.
UniProt Q9R0A0: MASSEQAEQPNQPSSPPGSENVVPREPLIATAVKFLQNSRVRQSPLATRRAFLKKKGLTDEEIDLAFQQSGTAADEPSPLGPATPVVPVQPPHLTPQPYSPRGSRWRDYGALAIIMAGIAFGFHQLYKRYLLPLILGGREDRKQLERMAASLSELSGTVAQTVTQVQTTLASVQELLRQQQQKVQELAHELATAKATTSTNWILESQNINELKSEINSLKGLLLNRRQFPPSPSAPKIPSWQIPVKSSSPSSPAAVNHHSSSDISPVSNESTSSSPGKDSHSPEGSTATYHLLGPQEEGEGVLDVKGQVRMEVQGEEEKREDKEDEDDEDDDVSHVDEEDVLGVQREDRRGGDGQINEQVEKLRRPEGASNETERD
UniProt O75381: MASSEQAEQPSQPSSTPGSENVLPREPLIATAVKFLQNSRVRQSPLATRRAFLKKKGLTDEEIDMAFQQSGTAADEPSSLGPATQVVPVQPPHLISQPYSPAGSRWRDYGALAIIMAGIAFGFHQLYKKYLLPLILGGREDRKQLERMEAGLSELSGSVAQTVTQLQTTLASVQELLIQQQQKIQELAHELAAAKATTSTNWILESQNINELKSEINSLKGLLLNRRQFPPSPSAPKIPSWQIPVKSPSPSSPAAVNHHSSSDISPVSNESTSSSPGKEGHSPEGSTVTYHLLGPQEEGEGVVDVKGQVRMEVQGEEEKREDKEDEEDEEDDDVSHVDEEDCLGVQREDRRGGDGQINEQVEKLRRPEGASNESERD

No constants are given. Whether binding was seen depends on the method and setting. In cells and extracts the contact can be indirect. Some results given as binding are weak or reduced against the parent protein; the word gives no strength. For some of these results: Sequences can lack the tags named with a protein.

Assay [1] concerns the target Peroxin 14 (PEX14) (mouse (endogenous in embryonic motor neurons)) (UniProt Q9R0A0). The experiment in a line: proximity ligation; Duolink in situ PLA on fixed, permeabilised (0.4% Triton X-100) cultured mouse embryonic motor neurons, endogenous proteins; wild-type compared with Gdap1-/-.
The target in assay [2] is Peroxin 14 (PEX14) (human (endogenous in fibroblasts)) (UniProt O75381). The assay is described as follows: proximity ligation; Duolink in situ PLA on fixed, methanol-permeabilised human fibroblasts, endogenous proteins; control compared with patients' fibroblasts, also after GDAP1-Myc transfection or GSH-MEE treatment.
For assay [3], the target named is T1, Mitofusin 2 (MFN2) (human (endogenous in fibroblasts)) (UniProt O95140).
T1 sequence: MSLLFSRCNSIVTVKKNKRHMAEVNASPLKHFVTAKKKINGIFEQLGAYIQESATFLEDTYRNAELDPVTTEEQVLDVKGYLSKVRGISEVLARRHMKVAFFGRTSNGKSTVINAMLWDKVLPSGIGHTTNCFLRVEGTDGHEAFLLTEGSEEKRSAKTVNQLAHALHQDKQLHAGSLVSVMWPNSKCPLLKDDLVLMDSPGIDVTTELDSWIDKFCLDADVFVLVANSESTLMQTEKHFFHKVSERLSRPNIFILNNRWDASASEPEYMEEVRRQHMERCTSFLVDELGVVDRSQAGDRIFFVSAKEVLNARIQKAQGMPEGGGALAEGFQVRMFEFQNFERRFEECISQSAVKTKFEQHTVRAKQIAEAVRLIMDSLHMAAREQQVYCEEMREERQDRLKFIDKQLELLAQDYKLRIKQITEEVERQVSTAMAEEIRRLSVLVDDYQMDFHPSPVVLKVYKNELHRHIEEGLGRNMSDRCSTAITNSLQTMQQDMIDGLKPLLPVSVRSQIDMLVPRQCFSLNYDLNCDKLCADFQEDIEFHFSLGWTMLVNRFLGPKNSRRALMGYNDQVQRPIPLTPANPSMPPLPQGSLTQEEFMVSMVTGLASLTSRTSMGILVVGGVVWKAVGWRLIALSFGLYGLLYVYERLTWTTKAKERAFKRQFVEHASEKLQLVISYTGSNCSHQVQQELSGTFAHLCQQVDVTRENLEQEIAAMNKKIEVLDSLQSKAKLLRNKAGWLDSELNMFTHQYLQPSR
Described as above.

Assay [4] has as its target Peroxin 14 (PEX14) (human (endogenous in fibroblasts)) (UniProt O75381). The assay is described as follows: co-IP; 1 mg lysate of control fibroblasts (1% Triton X-100 lysis buffer) with the specific antibody 6-8 h at 4°C, Protein G Sepharose overnight, western blot; endogenous proteins. On the technique in general: Immunoblotting shows a protein as a band on a membrane.

B1: Ganglioside-induced differentiation-associated protein 1 (GDAP1) (protein, UniProt O88741 1-358)
chain: MARRQDEARAGVPLRVEGPPDKEVHLILYHWTHSFSSQKVRLVIAEKALKCEEHDVSLPLSEHNEPWFMRLNSAGEVPVLVHGENIICEATQIIDYLEQTFLDERTPRLMPDEGSMYYPRVQHYRELLDSLPMDAYTHGCILHPELTVDSMIPAYATTRIRSQIGNTESELKKLAEENPDLQEAYIAKQKRLKSKLLDHDNVKYLKKILDELEKVLDQVETELQRRNEETPEEGNQPWLCGESFTLADVSLAVTLHRLKFLGFARRNWGHGKRPNLETYYERVLKRKTFNKVLGHVNNILISAVLPTAFRVAKKRAPKVLGSTLVVGLLVGMGYFAFMLFRRRLGSMILALRPRPNYF
Turning to B1, the binding result in assay [1] was “binds”.

B2: Ganglioside-induced differentiation-associated protein 1 (GDAP1) (protein, UniProt Q8TB36 1-358)
chain: MAERQEEQRGSPPLRAEGKADAEVKLILYHWTHSFSSQKVRLVIAEKALKCEEHDVSLPLSEHNEPWFMRLNSTGEVPVLIHGENIICEATQIIDYLEQTFLDERTPRLMPDKESMYYPRVQHYRELLDSLPMDAYTHGCILHPELTVDSMIPAYATTRIRSQIGNTESELKKLAEENPDLQEAYIAKQKRLKSKLLDHDNVKYLKKILDELEKVLDQVETELQRRNEETPEEGQQPWLCGESFTLADVSLAVTLHRLKFLGFARRNWGNGKRPNLETYYERVLKRKTFNKVLGHVNNILISAVLPTAFRVAKKRAPKVLGTTLVVGLLAGVGYFAFMLFRKRLGSMILAFRPRPNYF
B2: the binding entry in assay [2], in assay [3] and in assay [4] was “binds” in each case.
